Reference: the supplement of paper PMC10849652
The other results are listed elsewhere or left out.

Amino acid sequences for entries named in this document (tags omitted). A change or cut given only in a name is not applied to a line headed by its entry.
UniProt Q96S90: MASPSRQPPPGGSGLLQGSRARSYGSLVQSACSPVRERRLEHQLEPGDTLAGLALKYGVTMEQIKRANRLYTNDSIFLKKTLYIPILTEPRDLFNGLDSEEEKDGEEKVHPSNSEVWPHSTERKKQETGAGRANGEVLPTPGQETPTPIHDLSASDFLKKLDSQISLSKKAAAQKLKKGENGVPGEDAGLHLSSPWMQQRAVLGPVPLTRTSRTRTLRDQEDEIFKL
UniProt P43366: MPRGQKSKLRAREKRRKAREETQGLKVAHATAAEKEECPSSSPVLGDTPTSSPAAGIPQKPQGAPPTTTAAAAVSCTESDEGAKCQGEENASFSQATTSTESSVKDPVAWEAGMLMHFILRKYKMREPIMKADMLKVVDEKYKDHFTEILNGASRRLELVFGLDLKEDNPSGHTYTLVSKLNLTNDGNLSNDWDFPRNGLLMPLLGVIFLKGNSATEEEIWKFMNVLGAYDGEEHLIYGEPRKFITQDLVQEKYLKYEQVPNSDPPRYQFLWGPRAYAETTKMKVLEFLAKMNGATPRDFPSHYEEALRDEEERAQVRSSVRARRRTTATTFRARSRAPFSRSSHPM
UniProt Q96QZ7: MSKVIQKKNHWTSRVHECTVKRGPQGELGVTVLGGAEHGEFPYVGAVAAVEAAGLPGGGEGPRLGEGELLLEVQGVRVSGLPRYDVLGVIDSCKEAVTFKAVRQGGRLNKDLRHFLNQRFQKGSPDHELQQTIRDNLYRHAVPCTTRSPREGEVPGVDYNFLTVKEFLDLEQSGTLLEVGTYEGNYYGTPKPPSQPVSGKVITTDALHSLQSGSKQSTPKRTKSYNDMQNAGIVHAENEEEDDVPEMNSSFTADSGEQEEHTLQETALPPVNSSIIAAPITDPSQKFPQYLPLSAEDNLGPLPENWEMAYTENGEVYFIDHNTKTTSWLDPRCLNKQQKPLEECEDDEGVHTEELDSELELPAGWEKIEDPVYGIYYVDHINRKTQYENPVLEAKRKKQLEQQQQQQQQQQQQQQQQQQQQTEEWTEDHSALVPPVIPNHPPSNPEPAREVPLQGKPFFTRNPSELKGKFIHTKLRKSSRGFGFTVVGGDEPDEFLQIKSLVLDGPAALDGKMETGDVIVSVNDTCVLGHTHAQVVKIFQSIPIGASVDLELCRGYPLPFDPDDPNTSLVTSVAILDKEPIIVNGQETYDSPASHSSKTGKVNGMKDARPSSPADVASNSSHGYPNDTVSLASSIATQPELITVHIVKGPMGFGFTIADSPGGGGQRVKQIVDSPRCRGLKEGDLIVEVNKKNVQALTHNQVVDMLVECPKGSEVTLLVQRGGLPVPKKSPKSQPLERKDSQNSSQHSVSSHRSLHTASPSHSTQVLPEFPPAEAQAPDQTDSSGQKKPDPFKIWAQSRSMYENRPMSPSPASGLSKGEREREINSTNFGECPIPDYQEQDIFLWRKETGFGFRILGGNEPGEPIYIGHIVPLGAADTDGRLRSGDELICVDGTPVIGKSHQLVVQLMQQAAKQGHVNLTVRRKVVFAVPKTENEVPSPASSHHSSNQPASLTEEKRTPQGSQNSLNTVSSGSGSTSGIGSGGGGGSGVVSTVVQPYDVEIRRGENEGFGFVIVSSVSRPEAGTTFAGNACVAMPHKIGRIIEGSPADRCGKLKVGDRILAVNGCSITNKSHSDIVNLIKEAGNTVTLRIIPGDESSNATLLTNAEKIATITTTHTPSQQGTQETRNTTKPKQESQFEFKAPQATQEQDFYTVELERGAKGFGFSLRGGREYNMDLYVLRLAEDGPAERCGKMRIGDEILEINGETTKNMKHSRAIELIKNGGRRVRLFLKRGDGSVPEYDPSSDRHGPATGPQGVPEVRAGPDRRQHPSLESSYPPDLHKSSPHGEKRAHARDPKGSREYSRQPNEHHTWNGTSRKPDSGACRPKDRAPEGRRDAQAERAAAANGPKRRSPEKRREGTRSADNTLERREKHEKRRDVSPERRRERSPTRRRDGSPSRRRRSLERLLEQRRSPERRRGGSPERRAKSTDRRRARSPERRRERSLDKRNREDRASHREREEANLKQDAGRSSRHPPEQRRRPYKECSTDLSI
UniProt Q96A72, whole entry, looked up: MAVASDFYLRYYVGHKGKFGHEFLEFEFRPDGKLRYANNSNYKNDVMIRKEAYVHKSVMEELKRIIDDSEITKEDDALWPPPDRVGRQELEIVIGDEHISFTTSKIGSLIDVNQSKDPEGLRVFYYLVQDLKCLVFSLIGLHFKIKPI
UniProt Q8WV07: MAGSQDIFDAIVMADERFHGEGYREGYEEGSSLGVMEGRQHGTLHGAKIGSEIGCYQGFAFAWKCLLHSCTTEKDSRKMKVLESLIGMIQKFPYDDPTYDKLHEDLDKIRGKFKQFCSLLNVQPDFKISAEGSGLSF
UniProt Q8N2S1: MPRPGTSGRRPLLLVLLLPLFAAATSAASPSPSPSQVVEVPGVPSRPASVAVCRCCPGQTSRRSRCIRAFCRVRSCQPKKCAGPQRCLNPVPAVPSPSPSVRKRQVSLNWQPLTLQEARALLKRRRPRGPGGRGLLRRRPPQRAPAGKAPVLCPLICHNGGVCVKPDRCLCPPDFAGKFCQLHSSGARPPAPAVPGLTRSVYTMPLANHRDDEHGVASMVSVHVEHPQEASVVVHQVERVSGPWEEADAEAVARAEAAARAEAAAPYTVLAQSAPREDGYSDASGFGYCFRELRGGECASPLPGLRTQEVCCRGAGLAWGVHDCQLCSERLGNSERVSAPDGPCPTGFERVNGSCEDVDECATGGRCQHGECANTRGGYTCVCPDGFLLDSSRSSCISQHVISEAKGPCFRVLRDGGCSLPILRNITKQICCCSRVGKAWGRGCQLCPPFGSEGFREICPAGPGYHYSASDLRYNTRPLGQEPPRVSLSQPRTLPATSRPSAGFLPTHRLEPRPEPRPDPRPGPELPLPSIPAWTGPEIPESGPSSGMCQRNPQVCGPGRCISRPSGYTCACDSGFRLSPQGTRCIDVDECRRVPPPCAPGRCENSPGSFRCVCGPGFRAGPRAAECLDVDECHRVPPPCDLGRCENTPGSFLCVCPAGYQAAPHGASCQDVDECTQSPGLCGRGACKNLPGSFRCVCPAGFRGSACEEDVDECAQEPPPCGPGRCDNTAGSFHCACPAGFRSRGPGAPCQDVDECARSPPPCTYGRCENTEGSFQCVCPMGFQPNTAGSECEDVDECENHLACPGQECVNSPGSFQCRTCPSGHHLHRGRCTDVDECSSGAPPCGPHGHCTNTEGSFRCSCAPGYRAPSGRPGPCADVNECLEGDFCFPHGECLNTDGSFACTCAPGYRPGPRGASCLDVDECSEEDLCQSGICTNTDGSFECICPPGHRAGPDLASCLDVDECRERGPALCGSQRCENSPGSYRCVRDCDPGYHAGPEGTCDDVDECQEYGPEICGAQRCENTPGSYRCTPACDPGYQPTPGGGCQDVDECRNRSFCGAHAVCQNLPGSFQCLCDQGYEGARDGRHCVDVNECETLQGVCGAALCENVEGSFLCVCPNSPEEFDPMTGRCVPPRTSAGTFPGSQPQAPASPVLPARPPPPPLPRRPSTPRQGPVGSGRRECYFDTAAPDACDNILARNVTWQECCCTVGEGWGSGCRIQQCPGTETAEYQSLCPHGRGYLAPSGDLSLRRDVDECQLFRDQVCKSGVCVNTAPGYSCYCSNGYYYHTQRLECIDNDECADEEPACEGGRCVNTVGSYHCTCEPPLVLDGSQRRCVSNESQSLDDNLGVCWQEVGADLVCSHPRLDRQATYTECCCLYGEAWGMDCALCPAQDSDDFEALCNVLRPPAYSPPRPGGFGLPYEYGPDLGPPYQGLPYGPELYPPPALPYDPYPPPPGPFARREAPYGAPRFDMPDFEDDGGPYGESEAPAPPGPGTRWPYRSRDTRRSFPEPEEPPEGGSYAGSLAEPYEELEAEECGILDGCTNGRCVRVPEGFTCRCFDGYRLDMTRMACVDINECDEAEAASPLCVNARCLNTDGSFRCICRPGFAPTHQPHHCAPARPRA
UniProt Q7L1W4: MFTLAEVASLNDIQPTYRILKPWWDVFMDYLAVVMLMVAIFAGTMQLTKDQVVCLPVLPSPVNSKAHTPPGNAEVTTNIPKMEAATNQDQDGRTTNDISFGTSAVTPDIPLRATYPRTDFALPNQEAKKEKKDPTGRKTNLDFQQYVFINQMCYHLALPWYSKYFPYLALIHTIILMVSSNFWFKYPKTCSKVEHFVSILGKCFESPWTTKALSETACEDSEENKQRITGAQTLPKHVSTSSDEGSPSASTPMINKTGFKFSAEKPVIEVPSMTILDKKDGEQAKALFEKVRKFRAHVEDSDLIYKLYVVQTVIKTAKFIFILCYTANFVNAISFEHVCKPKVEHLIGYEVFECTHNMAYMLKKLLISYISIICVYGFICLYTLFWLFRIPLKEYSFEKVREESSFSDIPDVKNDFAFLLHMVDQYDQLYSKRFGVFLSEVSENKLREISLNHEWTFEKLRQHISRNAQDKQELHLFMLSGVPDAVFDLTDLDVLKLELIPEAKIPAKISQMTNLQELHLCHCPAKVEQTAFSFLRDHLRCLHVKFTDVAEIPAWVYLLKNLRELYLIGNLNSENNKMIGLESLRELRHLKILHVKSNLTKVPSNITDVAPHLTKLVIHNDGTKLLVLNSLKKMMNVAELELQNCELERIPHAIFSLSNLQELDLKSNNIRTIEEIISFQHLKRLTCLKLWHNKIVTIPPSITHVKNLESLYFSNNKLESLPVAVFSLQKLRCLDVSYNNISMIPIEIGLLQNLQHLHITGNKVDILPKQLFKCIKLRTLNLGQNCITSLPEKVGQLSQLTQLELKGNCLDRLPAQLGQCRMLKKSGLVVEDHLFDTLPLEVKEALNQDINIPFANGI
UniProt Q13257, whole entry, looked up: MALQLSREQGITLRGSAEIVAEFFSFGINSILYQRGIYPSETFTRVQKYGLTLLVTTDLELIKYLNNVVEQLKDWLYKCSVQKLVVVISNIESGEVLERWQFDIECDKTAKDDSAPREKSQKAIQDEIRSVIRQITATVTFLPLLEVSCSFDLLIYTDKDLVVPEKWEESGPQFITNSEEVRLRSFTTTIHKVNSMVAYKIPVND
UniProt P49006: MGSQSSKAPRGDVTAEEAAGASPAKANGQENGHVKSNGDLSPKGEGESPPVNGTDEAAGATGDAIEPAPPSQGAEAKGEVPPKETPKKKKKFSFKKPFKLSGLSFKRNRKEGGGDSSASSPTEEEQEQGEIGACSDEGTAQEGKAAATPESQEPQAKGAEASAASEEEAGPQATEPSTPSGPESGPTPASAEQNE
UniProt O14733: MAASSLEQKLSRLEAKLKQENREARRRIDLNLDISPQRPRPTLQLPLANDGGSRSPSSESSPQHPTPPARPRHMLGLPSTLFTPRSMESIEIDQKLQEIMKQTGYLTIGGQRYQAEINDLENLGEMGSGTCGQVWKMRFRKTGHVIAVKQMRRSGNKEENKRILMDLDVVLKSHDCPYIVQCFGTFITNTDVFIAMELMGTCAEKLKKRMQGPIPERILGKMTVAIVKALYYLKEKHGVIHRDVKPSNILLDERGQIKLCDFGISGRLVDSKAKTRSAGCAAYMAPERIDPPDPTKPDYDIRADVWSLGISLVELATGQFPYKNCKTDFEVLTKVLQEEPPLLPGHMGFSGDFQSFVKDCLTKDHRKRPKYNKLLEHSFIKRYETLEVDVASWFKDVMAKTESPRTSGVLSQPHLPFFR
UniProt Q9UPY8, whole entry, looked up: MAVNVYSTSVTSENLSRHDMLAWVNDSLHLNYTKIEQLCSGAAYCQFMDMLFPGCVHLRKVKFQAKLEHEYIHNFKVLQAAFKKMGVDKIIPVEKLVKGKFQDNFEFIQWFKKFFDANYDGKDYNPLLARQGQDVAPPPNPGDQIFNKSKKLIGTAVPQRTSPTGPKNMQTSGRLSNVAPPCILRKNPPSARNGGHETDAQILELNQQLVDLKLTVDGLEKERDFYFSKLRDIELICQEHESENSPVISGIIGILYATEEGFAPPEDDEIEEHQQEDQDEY
UniProt Q9UFC0: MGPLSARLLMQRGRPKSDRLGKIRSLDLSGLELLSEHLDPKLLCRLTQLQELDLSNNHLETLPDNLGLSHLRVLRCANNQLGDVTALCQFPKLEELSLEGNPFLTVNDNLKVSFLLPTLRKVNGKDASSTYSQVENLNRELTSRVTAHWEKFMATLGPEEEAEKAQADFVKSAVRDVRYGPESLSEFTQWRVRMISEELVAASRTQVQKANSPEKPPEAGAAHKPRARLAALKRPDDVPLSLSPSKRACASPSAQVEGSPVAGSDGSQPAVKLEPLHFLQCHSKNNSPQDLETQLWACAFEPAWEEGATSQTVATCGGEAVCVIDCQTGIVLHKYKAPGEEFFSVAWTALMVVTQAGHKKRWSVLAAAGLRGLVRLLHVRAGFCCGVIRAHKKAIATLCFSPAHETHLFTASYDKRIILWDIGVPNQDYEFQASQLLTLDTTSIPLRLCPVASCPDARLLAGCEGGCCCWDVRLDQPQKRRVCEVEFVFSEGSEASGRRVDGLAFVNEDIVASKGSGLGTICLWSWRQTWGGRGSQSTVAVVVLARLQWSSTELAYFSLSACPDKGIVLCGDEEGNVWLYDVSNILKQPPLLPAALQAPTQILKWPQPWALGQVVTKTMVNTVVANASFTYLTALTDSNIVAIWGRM

Assays:
Test in all cases: log2 fold change, soluble protein after heating vs DMSO (PISA); higher = thermal stabilisation; K562 cells, 10 uM, 30 min; active = over 0.2 and 3.5 SD of the protein, either way, in both replicates (recomputed)
[1] = compound: CC[C@@H]1C(=O)N(C)c2cnc(Nc3ccc(C(=O)NC4CCN(C)CC4)cc3OC)nc2N1C1CCCC1
Outline: (§1)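 Values are thermal stability changes relative to control samples and are taken from duplicates. They are stated as log2 fold changes. Before quantification by TMTpro 16plex LC-MS/MS with equalised channel sums, K562 cells at 2×10^6 cells/mL were treated with 10 μM compound for 30 min, heated in aliquots for 3 min across 48°C-58°C, pooled, extracted in PBS with 0.5% NP-40 at 4°C, and centrifuged at 21,000xg for 90 min to give the soluble supernatant.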

[2] = compound: CC[C@@H]1C(=O)N(C)c2cnc(Nc3ccc(C(=O)N[C@H]4CC[C@H](N5CCN(CC6CC6)CC5)CC4)cc3OC)nc2N1C(C)C [volasertib]
Outline: as §1

[3] = compound: CC[C@H](C)N1C=C(C2=C(C=C(C=C21)C3=CN=C(C=C3)N4CCNCC4)C(=O)NCC5=C(C=C(NC5=O)C)C)C
Outline: as §1

[4] = compound: CC[C@H](C)[C@@H](C(=O)N[C@@H]([C@@H](C)O)C(=O)N[C@@H](CC(C)C)C(=O)[C@]1(CO1)C)NC(=O)[C@H]([C@@H](C)CC)N(C)C(=O)C [epoxomicin]
Outline: as §1

[5] = compound: CCn1c(C(=O)N(C2CC2)C2CC2)cc2c3c(ncn3C)c(Nc3cc(C)n(C)n3)nc21
Outline: as §1

[6] = compound: CCn1cc(-c2ccnc3[nH]c(-c4cccc(CN(C)C)c4)cc23)c(-c2ccc(NC(=O)N(C)C)cc2)n1
Outline: as §1

[7] = compound: CN(C)CC(=O)Nc1ccc2[nH]c(=O)c3ccccc3c2c1
Outline: as §1

[8] = compound: CN(CCOC1=CC=C(C=C1)C[C@H]2C(=O)NC(=O)S2)C3=CC=CC=N3 (racemic) [rosiglitazone]
Outline: as §1

[9] = compound: CN1C2=C(C3=C1C(=O)N(N=C3)CC4=CC(=CC=C4)N)SC(=C2)S(=O)C
Outline: as §1

[10] = compound: CN1CCC(CNc2ccc3ncc(-c4cccc(OC(F)(F)F)c4)n3n2)CC1
Outline: as §1

Measured: log2 fold change

MANEA (UniProt Q5SRI9)
inactive: [1] -0.009 | [2] -0.025 | [3] -0.009 | [4] 0.142 | [5] -0.001 | [6] 0.121 | [7] 0.044 | [8] 0.023 | [9] 0.001 | [10] -0.048

LYSMD1 (UniProt Q96S90)
inactive: [1] -0.045 | [2] -0.031 | [3] 0.073 | [4] 0.029 | [5] -0.084 | [6] -0.012 | [7] 0.039 | [8] 0.062 | [9] 0.036 | [10] -0.051

MAGEB1 (UniProt P43366)
inactive: [1] 0.104 | [2] 0.12 | [3] 0.025 | [4] -0.306 | [5] 0.024 | [6] 0.183 | [7] -0.052 | [8] -0.075 | [9] 0.339 | [10] -0.038

LSM4 (UniProt Q9Y4Z0)
inactive: [1] 0.039 | [2] 0.091 | [3] -0.033 | [4] 0.027 | [5] 0.017 | [6] 0.017 | [7] -0.033 | [8] -0.009 | [9] -0.036 | [10] 0.129

LTN1 isoform 3 (UniProt O94822)
inactive: [1] -0.16 | [3] 0.079 | [4] -0.012 | [6] -0.019 | [7] 0.043 | [9] 0.06
active: [2] -0.459 | [10] -0.498

LSR (UniProt Q86X29)
inactive: [1] 0.109 | [2] 0.068 | [3] -0.02 | [4] -0.021 | [6] 0.011 | [7] -0.033 | [9] -0.001
active: [10] 0.214

LTF (UniProt P02788)
inactive: [1] -0.042 | [2] -0.003 | [3] 0.539 | [4] -0.214 | [5] -0.017 | [6] -0.009 | [7] -0.015 | [8] -0.021 | [9] 0.259 | [10] -0.025

MAGI1 (UniProt Q96QZ7)
inactive: [1] 0.041 | [2] 0.031 | [3] 0.026 | [4] -0.045 | [6] 0.012 | [7] -0.041 | [9] 0.014 | [10] -0.011

LYL1 (UniProt P12980)
inactive: [1] 0.009 | [2] -0.1 | [3] -0.181 | [4] 0.208 | [5] -0.002 | [7] 0.023 | [8] 0.07

LYZ (UniProt P61626)
inactive: [1] -0.113 | [2] -0.21 | [3] 0.912 | [4] 0.323 | [5] 0.473 | [7] 0.135 | [8] 0.039 | [9] 0.822

MAGOHB (UniProt Q96A72)
inactive: [1] -0.046 | [2] -0.096 | [3] 0.014 | [4] 0.007 | [6] 0.003 | [7] 0.013 | [9] -0.039 | [10] 0.023

MAPK14 isoform 2 (UniProt Q16539)
inactive: [1] -0.223 | [2] -0.398 | [3] -0.019 | [4] 0.02 | [6] 0.001 | [7] 0.039 | [9] -0.029 | [10] 0.074

MAP4 (UniProt E7EVA0)
inactive: [1] 0.079 | [2] 0.246 | [3] 0.036 | [4] -0.113 | [6] 0.068 | [7] -0.021 | [9] 0.131 | [10] 0.152

MAP3K4 isoform 2 (UniProt Q9Y6R4)
active: [2] 0.398 | [6] -0.519
inactive: [1] 0.141 | [3] -0.013 | [4] 0.007 | [7] 0.013 | [9] -0.018 | [10] 0.024

MAGEA9 (UniProt P43362)
inactive: [1] -0.11 | [3] -0.057 | [4] -0.044 | [6] -0.088 | [7] 0.044 | [9] -0.084 | [10] -0.116
active: [2] -0.39

LRRC8C (UniProt Q8TDW0)
inactive: [1] 0.201 | [2] 0.179 | [3] -0.053 | [4] -0.145 | [5] 0.04 | [6] -0.035 | [9] 0.106 | [10] 0.041

LTO1 (UniProt Q8WV07)
active: [7] -0.312
inactive: [1] -0.018 | [2] 0.322 | [3] 0.058 | [4] 0.063 | [6] -0.029 | [9] -0.105 | [10] 0.035

Seven successive records already listed, for reference:
LTN1 isoform 3 (UniProt O94822)
inactive: [1] -0.16 | [3] 0.079 | [4] -0.012 | [6] -0.019 | [7] 0.043 | [9] 0.06
active: [2] -0.459 | [10] -0.498

LSR (UniProt Q86X29)
inactive: [1] 0.109 | [2] 0.068 | [3] -0.02 | [4] -0.021 | [6] 0.011 | [7] -0.033 | [9] -0.001
active: [10] 0.214

LTF (UniProt P02788)
inactive: [1] -0.042 | [2] -0.003 | [3] 0.539 | [4] -0.214 | [5] -0.017 | [6] -0.009 | [7] -0.015 | [8] -0.021 | [9] 0.259 | [10] -0.025

MAGI1 (UniProt Q96QZ7)
inactive: [1] 0.041 | [2] 0.031 | [3] 0.026 | [4] -0.045 | [6] 0.012 | [7] -0.041 | [9] 0.014 | [10] -0.011

LYL1 (UniProt P12980)
inactive: [1] 0.009 | [2] -0.1 | [3] -0.181 | [4] 0.208 | [5] -0.002 | [7] 0.023 | [8] 0.07

LYZ (UniProt P61626)
inactive: [1] -0.113 | [2] -0.21 | [3] 0.912 | [4] 0.323 | [5] 0.473 | [7] 0.135 | [8] 0.039 | [9] 0.822

MAGOHB (UniProt Q96A72)
inactive: [1] -0.046 | [2] -0.096 | [3] 0.014 | [4] 0.007 | [6] 0.003 | [7] 0.013 | [9] -0.039 | [10] 0.023

The list goes on.

MAD2L1BP isoform 3 (UniProt Q15013)
inactive: [1] -0.01 | [2] -0.052 | [3] 0.052 | [4] 0.094 | [5] -0.036 | [7] -0.047 | [8] 0.027 | [9] -0.012

MARK3 (UniProt P27448)
inactive: [1] -0.057 | [2] -0.078 | [3] 0.097 | [4] 0.019 | [6] -0.019 | [7] 0.055 | [9] 0.051
active: [10] -0.549

LTBP4 (UniProt Q8N2S1)
inactive: [1] 0.15 | [2] 0.019 | [3] 0.329 | [4] -0.059 | [5] -0.094 | [6] -0.161 | [9] -0.021 | [10] 0.135

MAP4K4 isoform 3 (UniProt O95819)
inactive: [1] -0.082 | [3] 0.011 | [4] 0.047 | [6] -0.184 | [7] 0.012 | [9] 0.001
active: [2] -0.316 | [10] -0.299

LRRC8D (UniProt Q7L1W4)
inactive: [1] 0.186 | [2] -0.005 | [3] -0.104 | [4] -0.082 | [5] 0.057 | [7] 0.044 | [9] 0.171

MAD2L1 (UniProt Q13257)
inactive: [1] -0.058 | [3] 0.016 | [4] -0.045 | [6] -0.038 | [7] 0.002 | [9] -0.081 | [10] -0.166
active: [2] -0.381

MARCKSL1 (UniProt P49006)
inactive: [1] -0.055 | [2] 0.038 | [3] 0.021 | [4] -0.055 | [6] -0.015 | [7] -0.044 | [9] -0.08 | [10] 0.147

MAP2K7 isoform 4 (UniProt O14733)
inactive: [1] -0.026 | [2] -0.005 | [3] 0.022 | [4] 0.07 | [6] -0.086 | [7] -0.017 | [9] -0.065 | [10] -0.15

LUC7L2 (UniProt Q9Y383)
inactive: [1] -0.171 | [3] 0.044 | [4] -0.017 | [6] -0.003 | [7] -0.001 | [9] -0.025 | [10] -0.073
active: [2] -0.345

MAPRE3 (UniProt Q9UPY8)
inactive: [1] -0.105 | [2] -0.226 | [3] 0.101 | [4] 0.01 | [6] -0.041 | [7] -0.009 | [9] -0.068 | [10] -0.061

MAP3K7 (UniProt O43318)
inactive: [1] -0.015 | [3] -0.008 | [4] 0.018 | [6] 0.043 | [7] 0.046 | [9] 0.079 | [10] -0.093
active: [2] -0.369

LRWD1 (UniProt Q9UFC0)
inactive: [1] -0.313 | [2] -0.221 | [3] 0.182 | [4] -0.028 | [5] -0.042 | [7] 0.008 | [8] 0.314 | [9] -0.055
